Data reported in US20250283871A1, “COMPOSITIONS AND METHODS FOR MODULATING THE INTERACTION BETWEEN SS18-SSX FUSION ONCOPROTEIN AND NUCLEOSOMES” (Dana-Farber Cancer Institute, Inc., priority 2020, published 2025).

Test system: BAF complex subunits and histone proteins
Test: Mass spectrometry proteomics of purified HA-SS18 WT and HA-SS18-SSX1 complexes (Tables 5A-5E)
Design: species or system human
Conditions: for Total / Unique: HA-SS18SSX1_CHR_peptides; for Total: total peptides of the identified protein; for Unique: unique peptides of the identified protein
[1] = HA-SS18SSX1_CHR_peptides: protein identified in the HA-SS18-SSX1 purification from solubilized chromatin (CHR), HEK-293T
[2] = HA-SS18SSX1_NE_peptides: protein co-purified with HA-SS18-SSX1 BAF complexes from soluble nuclear extract (NE), HEK-293T cells
[3] = HA-SS18WT_CHR_peptides: HA-SS18 WT purification from nuclease-treated solubilized chromatin (CHR), HEK-293T, label = protein identified
[4] = HA-SS18WT_NE_peptides: HA-SS18 WT complexes purified from nuclear extract (NE), HEK-293T, label = protein identified (Gene Symbol)
[5] = HA-SS18WT_CHR_peptides: protein identified in HA-SS18 WT BAF complex purification from nuclease-treated solubilized chromatin (CHR), HEK-293T

B1: SF3B1 (protein)
chain: MAKIAKTHEDIEAQIREIQGKKAALDEAQGVGLDSTGYYDQEIYGGSDSRFAGYVTSIAATELEDDDDDYSSSTSLLGQKKPGYHAPVALLNDIPQSTEQYDPFAEHRPPKIADREDEYKKHRRTMIISPERLDPFADGGKTPDPKMNARTYMDVMREQHLTKEEREIRQQLAEKAKAGELKVVNGAAASQPPSKRKRRWDQTADQTPGATPKKLSSWDQAETPGHTPSLRWDETPGRAKGSETPGATPGSKIWDPTPSHTPAGAATPGRGDTPGHATPGHGGATSSARKNRWDETPKTERDTPGHGSGWAETPRTDRGGDSIGETPTPGASKRKSRWDETPASQMGGSTPVLTPGKTPIGTPAMNMATPTPGHIMSMTPEQLQAWRWEREIDERNRPLSDEELDAMFPEGYKVLPPPAGYVPIRTPARKLTATPTPLGGMTGFHMQTEDRTMKSVNDQPSGNLPFLKPDDIQYFDKLLVDVDESTLSPEEQKERKIMKLLLKIKNGTPPMRKAALRQITDKAREFGAGPLFNQILPLLMSPTLEDQERHLLVKVIDRILYKLDDLVRPYVHKILVVIEPLLIDEDYYARVEGREIISNLAKAAGLATMISTMRPDIDNMDEYVRNTTARAFAVVASALGIPSLLPFLKAVCKSKKSWQARHTGIKIVQQIAILMGCAILPHLRSLVEIIEHGLVDEQQKVRTISALAIAALAEAATPYGIESFDSVLKPLWKGIRQHRGKGLAAFLKAIGYLIPLMDAEYANYYTREVMLILIREFQSPDEEMKKIVLKVVKQCCGTDGVEANYIKTEILPPFFKHFWQHRMALDRRNYRQLVDTTVELANKVGAAEIISRIVDDLKDEAEQYRKMVMETIEKIMGNLGAADIDHKLEEQLIDGILYAFQEQTTEDSVMLNGFGTVVNALGKRVKPYLPQICGTVLWRLNNKSAKVRQQAADLISRTAVVMKTCQEEKLMGHLGVVLYEYLGEEYPEVLGSILGALKAIVNVIGMHKMTPPIKDLLPRLTPILKNRHEKVQENCIDLVGRIADRGAEYVSAREWMRICFELLELLKAHKKAIRRATVNTFGYIAKAIGPHDVLATLLNNLKVQERQNRVCTTVAIAIVAETCSPFTVLPALMNEYRVPELNVQNGVLKSLSFLFEYIGEMGKDYIYAVTPLLEDALMDRDLVHRQTASAVVQHMSLGVYGFGCEDSLNHLLNYVWPNVFETSPHVIQAVMGALEGLRVAIGPCRMLQYCLQGLFHPARKVRDVYWKIYNSIYIGSQDALIAHYPRIYNDDKNTYIRYELDYIL
B1 was tested, and the “Total (total peptides)” value [1] was 28, the “Unique (unique peptides)” value [1] was 27 and the “Total (peptides)” value [2] was 1. For the same molecule, the “Unique (peptides)” value [2] was 1, the “Total (peptides)” value [3] was 15 and the “Unique (peptides)” value [3] was 15. For the same molecule, the “Total (peptides)” value [4] was 3 and the “Unique (peptides)” value [4] was 3.

B2: NKTR (protein, UniProt P30414 1-1462, looked up)
NK-tumor recognition protein: MGAQDRPQCHFDIEINREPVGRIMFQLFSDICPKTCKNFLCLCSGEKGLGKTTGKKLCYKGSTFHRVVKNFMIQGGDFSEGNGKGGESIYGGYFKDENFILKHDRAFLLSMANRGKHTNGSQFFITTKPAPHLDGVHVVFGLVISGFEVIEQIENLKTDAASRPYADVRVIDCGVLATKSIKDVFEKKRKKPTHSEGSDSSSNSSSSSESSSESELEHERSRRRKHKRRPKVKRSKKRRKEASSSEEPRNKHAMNPKGHSERSDTNEKRSVDSSAKREKPVVRPEEIPPVPENRFLLRRDMPVVTAEPEPKIPDVAPIVSDQKPSVSKSGRKIKGRGTIRYHTPPRSRSCSESDDDDSSETPPHWKEEMQRLRAYRPPSGEKWSKGDKLSDPCSSRWDERSLSQRSRSWSYNGYYSDLSTARHSGHHKKRRKEKKVKHKKKGKKQKHCRRHKQTKKRRILIPSDIESSKSSTRRMKSSCDRERSSRSSSLSSHHSSKRDWSKSDKDVQSSLTHSSRDSYRSKSHSQSYSRGSSRSRTASKSSSHSRSRSKSRSSSKSGHRKRASKSPRKTASQLSENKPVKTEPLRATMAQNENVVVQPVVAENIPVIPLSDSPPPSRWKPGQKPWKPSYERIQEMKAKTTHLLPIQSTYSLANIKETGSSSSYHKREKNSESDQSTYSKYSDRSSESSPRSRSRSSRSRSYSRSYTRSRSLASSHSRSRSPSSRSHSRNKYSDHSQCSRSSSYTSISSDDGRRAKRRLRSSGKKNSVSHKKHSSSSEKTLHSKYVKGRDRSSCVRKYSESRSSLDYSSDSEQSSVQATQSAQEKEKQGQMERTHNKQEKNRGEEKSKSERECPHSKKRTLKENLSDHLRNGSKPKRKNYAGSKWDSESNSERDVTKNSKNDSHPSSDKEEGEATSDSESEVSEIHIKVKPTTKSSTNTSLPDDNGAWKSSKQRTSTSDSEGSCSNSENNRGKPQKHKHGSKENLKREHTKKVKEKLKGKKDKKHKAPKRKQAFHWQPPLEFGEEEEEEIDDKQVTQESKEKKVSENNETIKDNILKTEKSSEEDLSGKHDTVTVSSDLDQFTKDDSKLSISPTALNTEENVACLQNIQHVEESVPNGVEDVLQTDDNMEICTPDRSSPAKVEETSPLGNARLDTPDINIVLKQDMATEHPQAEVVKQESSMSESKVLGEVGKQDSSSASLASAGESTGKKEVAEKSQINLIDKKWKPLQGVGNLAAPNAATSSAVEVKVLTTVPEMKPQGLRIEIKSKNKVRPGSLFDEVRKTARLNRRPRNQESSSDEQTPSRDDDSQSRSPSRSRSKSETKSRHRTRSVSYSHSRSRSRSSTSSYRSRSYSRSRSRGWYSRGRTRSRSSSYRSYKSHRTSSRSRSRSSSYDPHSRSRSYTYDSYYSRSRSRSRSQRSDSYHRGRSYNRRSRSCRSYGSDSESDRSYSHHRSPSESSRYS
B2 showed a Total of 2 and a Unique of 2.

B3: CYC1 (protein, UniProt P08574 85-325, looked up)
Cytochrome c1, heme protein, …: SDLELHPPSYPWSHRGLLSSLDHTSIRRGFQVYKQVCASCHSMDFVAYRHLVGVCYTEDEAKELAAEVEVQDGPNEDGEMFMRPGKLFDYFPKPYPNSEAARAANNGALPPDLSYIVRARHGGEDYVFSLLTGYCEPPTGVSLREGLYFNPYFPGQAIAMAPPIYTDVLEFDDGTPATMSQIAKDVCTFLRWASEPEHDHRKRMGLKMLMMMALLVPLVYTIKRHKWSVLKSRKLAYRPPK
B3 was tested, and the Total was 2, the Unique was 2 and the “Total (peptides)” value [2] was 2. For the same molecule, the “Unique (peptides)” value [2] was 2, the “Total (total peptides)” value [5] was 2 and the “Unique (unique peptides)” value [5] was 2.

B4: MIS18BP1 (protein, UniProt Q6P0N0 1-1132, looked up)
Mis18-binding protein 1: MIATPLKHSRIYLPPEASSQRRNLPMDAIFFDSIPSGTLTPVKDLVKYQNSSLKLNDHKKNQFLKMTTFNNKNIFQSTMLTEATTSNSSLDISAIKPNKDGLKNKANYESPGKIFLRMKEKVLRDKQEQPSRNSSLLEPQKSGNNETFTPNRVEKKKLQHTYLCEEKENNKSFQSDDSSLRASVQGVPLESSNNDIFLPVKQKIQCQQEKKAPLHNLTYELPTLNQEQENFLAVEARNKTLTRAQLAKQIFHSKESIVATTKSKKDTFVLESVDSADEQFQNTNAETLSTNCIPIKNGSLLMVSDSERTTEGTSQQKVKEGNGKTVPGETGLPGSMKDTCKIVLATPRLHITIPRRSKRNISKLSPPRIFQTVTNGLKKNQVVQLQEWMIKSINNNTAICVEGKLIDVTNIYWHSNVIIERIEHNKLRTISGNVYILKGMIDQISMKEAGYPNYLIRKFMFGFPENWKEHIDNFLEQLRAGEKNREKTKQKQKTGRSVRDIRKSMKNDARENQTDTAQRATTTYDFDCDNLELKSNKHSESPGATELNMCHSNCQNKPTLRFPDDQVNNTIQNGGGDDLSNQELIGKKEYKMSSKKLKIGERTNERIIKSQKQETTEELDVSIDILTSREQFFSDEERKYMAINQKKAYILVTPLKSRKVIEQRCMRYNLSAGTIKAVTDFVIPECQKKSPISKSMGTLENTFEGHKSKNKEDCDERDLLTVNRKIKISNLEKEQMLTSDFKKNTRLLPKLKKIENQVAMSFYKHQSSPDLSSEESETEKEIKRKAEVKKTKAGNTKEAVVHLRKSTRNTSNIPVILEPETEESENEFYIKQKKARPSVKETLQKSGVRKEFPITEAVGSDKTNRHPLECLPGLIQDKEWNEKELQKLHCAFASLPKHKPGFWSEVAAAVGSRSPEECQRKYMENPRGKGSQKHVTKKKPANSKGQNGKRGDADQKQTIKITAKVGTLKRKQQMREFLEQLPKDDHDDFFSTTPLQHQRILLPSFQDSEDDDDILPNMDKNPTTPSSVIFPLVKTPQCQHVSPGMLGSINRNDCDKYVFRMQKYHKSNGGIVWGNIKKKLVETDFSTPTPRRKTPFNTDLGENSGIGKLFTNAVESLDEEEKDYYFSNSDSA
With B4 the Total was 2, the Unique was 2 and the “Total (peptides)” value [3] was 3. For the same molecule, the “Unique (peptides)” value [3] was 3.

B5: ATF3 (protein, UniProt P18847 1-181, looked up)
Cyclic AMP-dependent …: MMLQHPGQVSASEVSASAIVPCLSPPGSLVFEDFANLTPFVKEELRFAIQNKHLCHRMSSALESVTVSDRPLGVSITKAEVAPEEDERKKRRRERNKIAAAKCRNKKKEKTECLQKESEKLESVNAELKAQIEELKNEKQHLIYMLNLHRPTCIVRAQNGRTPEDERNLFIQQIKEGTLQS
With B5 the Total was 2 and the Unique was 2.

B6: RBM28 (protein, UniProt Q9NW13 2-759, looked up)
RNA-binding protein 28: AGLTLFVGRLPPSARSEQLEELFSQVGPVKQCFVVTEKGSKACRGFGYVTFSMLEDVQRALKEITTFEGCKINVTVAKKKLRNKTKEKGKNENSECPKKEPKAKKAKVADKKARLIIRNLSFKCSEDDLKTVFAQFGAVLEVNIPRKPDGKMRGFGFVQFKNLLEAGKALKGMNMKEIKGRTVAVDWAVAKDKYKDTQSVSAIGEEKSHESKHQESVKKKGREEEDMEEEENDDDDDDDDEEDGVFDDEDEEEENIESKVTKPVQIQKRAVKRPAPAKSSDHSEEDSDLEESDSIDDGEELAQSDTSTEEQEDKAVQVSNKKKRKLPSDVNEGKTVFIRNLSFDSEEEELGELLQQFGELKYVRIVLHPDTEHSKGCAFAQFMTQEAAQKCLLAASPENEAGGLKLDGRQLKVDLAVTRDEAAKLQTTKVKKPTGTRNLYLAREGLIRAGTKAAEGVSAADMAKRERFELLKHQKLKDQNIFVSRTRLCLHNLPKAVDDKQLRKLLLSATSGEKGVRIKECRVMRDLKGVHGNMKGQSLGYAFAEFQEHEHALKALRLINNNPEIFGPLKRPIVEFSLEDRRKLKMKELRIQRSLQKMRSKPATGEPQKGQPEPAKDQQQKAAQHHTEEQSKVPPEQKRKAGSTSWTGFQTKAEVEQVELPDGKKRRKVLALPSHRGPKIRLRDKGKVKPVHPKKPKPQINQWKQEKQQLSSEQVSRKKAKGNKTETRFNQLVEQYKQKLLGPSKGAPLAKRSKWFDS
For B6, the Total was 2, the Unique was 2 and the “Total (total peptides)” value [5] was 2. For the same molecule, the “Unique (unique peptides)” value [5] was 2.
